# Source: the supplement of paper PMC4635364
# Where a name gives a salt, the structure may show the parent alone. Some of the results follow. Single values are uncertain here, since repeats match poorly.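 Cells: ReNCell VM human fetal ventral-midbrain neural progenitors, differentiated mitogen-free. Blinded raters compared doublecortin-stained (early neurons) or tyrosine hydroxylase-stained (dopaminergic neurons) images with untreated wells, where 0 means no change. After repeats and both raters were averaged, compounds scoring 2 or above became hits for retesting.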
# Test system: ReNCell VM
# Test: dopaminergic neuron differentiation score (TH+ cell fraction vs untreated, manual image score) (score (0 to 3)); higher = more TH+ dopaminergic neuron differentiation
# Settings: library: Natural; 2 uM; 4 weeks; BDNF 10 ng/ml + GDNF 10 ng/ml
row,Compound,dopaminergic neuron differentiation score
1,"COc1c(CO)cc(CO)cc(CO)c1=O [3,5,7-tris-hydroxymethyl-2-methoxy-cyclohepta-2,4,6-trienone]",inactive: 0
2,O=C(O)/C=C/c1ccc(O)c(O)c1 [caffeic acid],inactive: 0
3,COc1cc(=O)n(C)c2c(OCC3OC(C)(C)OC3(C)C)cccc12 (stereo unspecified) [foliosidine acetonide],inactive: 0

# Same assay, conditions: library: Prestwick; 2 uM; 4 weeks; BDNF 10 ng/ml + GDNF 10 ng/ml
row,Compound,dopaminergic neuron differentiation score
1,NCc1ccccc1CC(=O)N[C@@H]1C(=O)N2C(C(=O)O)=C(CSc3nnnn3CC(=O)O)CS[C@H]12 [Ceforanide],inactive: 0
2,CC(C(=O)O)c1ccc(N2Cc3ccccc3C2=O)cc1 (stereo unspecified) [Indoprofen],inactive: 0
3,Cc1cc2c(s1)Nc1ccccc1N=C2N1CCN(C)CC1 [Olanzapine],inactive: 0
4,CC[C@@]1(O)C(=O)OCc2c1cc1n(c2=O)Cc2cc3c(CN(C)C)c(O)ccc3nc2-1 [Topotecan],inactive: 0
5,CC1=C(C(=O)O)N2C(=O)[C@@H](NC(=O)[C@H](N)c3ccc(O)cc3)[C@H]2SC1 [Cefadroxil],inactive: 0
6,CN1CCC(=C2c3ccccc3CCc3sccc32)CC1 [Pizotifen malate],inactive: 0
7,CC(=O)OC[C@H]1O[C@@H]([S-])[C@H](OC(C)=O)[C@@H](OC(C)=O)[C@@H]1OC(C)=O.CCP(CC)CC.[Au+] [Auranofin],inactive: 0
8,C[C@H](CCC(=O)O)[C@H]1CC[C@H]2[C@@H]3CC[C@@H]4C[C@H](O)CC[C@]4(C)[C@H]3CC[C@]12C [Lithocholic acid],inactive: 0

# Same assay, conditions: library: Spectrum; 2 uM; 4 weeks; BDNF 10 ng/ml + GDNF 10 ng/ml
row,Compound,dopaminergic neuron differentiation score
1,CO[C@@]1(NC(=O)C2SC(=C(C(N)=O)C(=O)O)S2)C(=O)N2C(C(=O)O)=C(CSc3nnnn3C)CS[C@@H]21 (stereo partly specified),inactive: 0
2,CC(C)Cc1ccc([C@H](C)C(=O)O)cc1,inactive: 0
3,N[C@@H](CC(=O)N1CCn2c(nnc2C(F)(F)F)C1)Cc1cc(F)c(F)cc1F,inactive: 0
4,OC[C@H]1O[C@@H](OCCc2ccc(O)cc2)[C@H](O)[C@@H](O)[C@@H]1O,inactive: 0
5,Cc1ccnc(NS(=O)(=O)c2ccc(N)cc2)n1,inactive: 0
6,CNC(=C[N+](=O)[O-])NCCSCc1ccc(CN(C)C)o1,inactive: 0
7,CCOC(=O)COc1ccc2c(=O)cc(-c3ccccc3)oc2c1,inactive: 1
8,CCOc1ccc(NC(C)=O)cc1,inactive: 0
9,N=C(N)c1ccc(N=NNc2ccc(C(=N)N)cc2)cc1,inactive: 0
10,O=c1[nH]cnc2c1ncn2[C@@H]1O[C@H](CO)[C@@H](O)[C@H]1O,inactive: 0
11,OC[C@H]1O[C@H](OCC2O[C@@H](O)[C@H](O)[C@@H](O)[C@@H]2O)[C@H](O)[C@@H](O)[C@H]1O (stereo partly specified),active: 3
12,CCCCCOC(=O)Nc1nc(=O)n([C@@H]2O[C@H](C)[C@@H](O)[C@H]2O)cc1F,inactive: 0
13,CC(=O)OC(C)C[N+](C)(C)C (stereo unspecified),inactive: 0
14,CC1(C)S[C@@H]2[C@H](N3C(=O)[C@@H](c4ccccc4)NC3(C)C)C(=O)N2[C@H]1C(=O)O,inactive: 0
15,Nc1ccc2cc3ccc(N)cc3nc2c1,inactive: 0
16,CC(=O)CC(c1ccccc1)c1c(O)c2ccccc2oc1=O (stereo unspecified),inactive: 0
17,CCn1cc(C(=O)O)c(=O)c2cc(F)c(N3CCNCC3)nc21,inactive: 0
18,CN(C)CCCN1c2ccccc2CCc2ccccc21,inactive: 0
19,C[N+]1(C)CCC(OC(=O)C(O)(c2ccccc2)C2CCCC2)C1 (stereo unspecified),inactive: 0
20,O=C(O)c1cc(=O)c(O)c2c(O)c(O)c(O)cc2c1,inactive: 0
21,NS(=O)(=O)c1cc2c(cc1C(F)(F)F)NC(Cc1ccccc1)NS2(=O)=O (stereo unspecified),inactive: 0

# Random excerpt: two compounds from above
row,Compound,dopaminergic neuron differentiation score
12,CCCCCOC(=O)Nc1nc(=O)n([C@@H]2O[C@H](C)[C@@H](O)[C@H]2O)cc1F,inactive: 0
13,CC(=O)OC(C)C[N+](C)(C)C (stereo unspecified),inactive: 0

# Same assay, conditions: library: Tocriscreen; 2 uM; 4 weeks; BDNF 10 ng/ml + GDNF 10 ng/ml
row,Compound,dopaminergic neuron differentiation score
1,COC1CCC(C(=O)c2ccc3nc4c(cc3c2)CCCO4)CC1 (stereo unspecified),inactive: 0
2,CC1(C)CCC(C)(C)c2cc(C3(c4ccc(C(=O)O)cc4)OCCO3)ccc21,inactive: 0
3,O=C(/C=C/c1ccc(O)c(O)c1)O[C@H](Cc1ccc(O)c(O)c1)C(=O)O [Rosmarinic acid],inactive: 0
4,CCOC(=O)[C@H](CCc1ccccc1)N[C@@H](C)C(=O)N1Cc2cc(OC)c(OC)cc2C[C@H]1C(=O)O [Moexipril hydrochloride],inactive: 0
